Measured values: publication PMC11176080
No constants are given. Whether binding was seen depends on the method and setting. In cells and extracts the contact can be indirect. A yes stands for co-enrichment or nearness to the bait. Other partners may have been found.

Chains of the proteins cited; added tags and fusions are not shown.
UniProt Q91ZW3: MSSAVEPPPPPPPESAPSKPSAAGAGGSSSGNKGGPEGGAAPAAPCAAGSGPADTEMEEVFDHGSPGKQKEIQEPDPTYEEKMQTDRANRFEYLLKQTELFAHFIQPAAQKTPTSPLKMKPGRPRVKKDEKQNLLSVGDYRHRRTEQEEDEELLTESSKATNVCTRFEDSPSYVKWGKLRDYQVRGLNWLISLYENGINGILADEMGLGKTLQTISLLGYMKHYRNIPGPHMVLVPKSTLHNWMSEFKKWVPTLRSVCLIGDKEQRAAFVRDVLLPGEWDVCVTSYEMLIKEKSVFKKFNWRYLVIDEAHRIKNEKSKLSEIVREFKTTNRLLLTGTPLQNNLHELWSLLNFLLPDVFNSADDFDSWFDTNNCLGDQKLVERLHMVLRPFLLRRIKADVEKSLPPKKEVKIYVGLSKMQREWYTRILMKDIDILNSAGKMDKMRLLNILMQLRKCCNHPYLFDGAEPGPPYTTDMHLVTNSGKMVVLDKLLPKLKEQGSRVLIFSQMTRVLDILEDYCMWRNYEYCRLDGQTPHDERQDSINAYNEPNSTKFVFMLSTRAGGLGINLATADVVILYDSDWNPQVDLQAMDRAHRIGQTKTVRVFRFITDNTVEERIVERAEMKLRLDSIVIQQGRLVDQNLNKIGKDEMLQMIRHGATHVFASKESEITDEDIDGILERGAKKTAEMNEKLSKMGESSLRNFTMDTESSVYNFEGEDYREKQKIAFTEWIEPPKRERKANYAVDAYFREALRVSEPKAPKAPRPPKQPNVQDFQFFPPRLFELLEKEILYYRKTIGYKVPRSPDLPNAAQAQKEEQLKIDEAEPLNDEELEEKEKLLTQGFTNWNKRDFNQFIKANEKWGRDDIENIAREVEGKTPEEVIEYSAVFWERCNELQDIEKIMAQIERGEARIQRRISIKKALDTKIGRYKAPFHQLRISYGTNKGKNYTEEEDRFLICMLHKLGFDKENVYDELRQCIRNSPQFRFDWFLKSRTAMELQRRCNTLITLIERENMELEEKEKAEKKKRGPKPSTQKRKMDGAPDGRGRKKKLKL
UniProt Q91YE5: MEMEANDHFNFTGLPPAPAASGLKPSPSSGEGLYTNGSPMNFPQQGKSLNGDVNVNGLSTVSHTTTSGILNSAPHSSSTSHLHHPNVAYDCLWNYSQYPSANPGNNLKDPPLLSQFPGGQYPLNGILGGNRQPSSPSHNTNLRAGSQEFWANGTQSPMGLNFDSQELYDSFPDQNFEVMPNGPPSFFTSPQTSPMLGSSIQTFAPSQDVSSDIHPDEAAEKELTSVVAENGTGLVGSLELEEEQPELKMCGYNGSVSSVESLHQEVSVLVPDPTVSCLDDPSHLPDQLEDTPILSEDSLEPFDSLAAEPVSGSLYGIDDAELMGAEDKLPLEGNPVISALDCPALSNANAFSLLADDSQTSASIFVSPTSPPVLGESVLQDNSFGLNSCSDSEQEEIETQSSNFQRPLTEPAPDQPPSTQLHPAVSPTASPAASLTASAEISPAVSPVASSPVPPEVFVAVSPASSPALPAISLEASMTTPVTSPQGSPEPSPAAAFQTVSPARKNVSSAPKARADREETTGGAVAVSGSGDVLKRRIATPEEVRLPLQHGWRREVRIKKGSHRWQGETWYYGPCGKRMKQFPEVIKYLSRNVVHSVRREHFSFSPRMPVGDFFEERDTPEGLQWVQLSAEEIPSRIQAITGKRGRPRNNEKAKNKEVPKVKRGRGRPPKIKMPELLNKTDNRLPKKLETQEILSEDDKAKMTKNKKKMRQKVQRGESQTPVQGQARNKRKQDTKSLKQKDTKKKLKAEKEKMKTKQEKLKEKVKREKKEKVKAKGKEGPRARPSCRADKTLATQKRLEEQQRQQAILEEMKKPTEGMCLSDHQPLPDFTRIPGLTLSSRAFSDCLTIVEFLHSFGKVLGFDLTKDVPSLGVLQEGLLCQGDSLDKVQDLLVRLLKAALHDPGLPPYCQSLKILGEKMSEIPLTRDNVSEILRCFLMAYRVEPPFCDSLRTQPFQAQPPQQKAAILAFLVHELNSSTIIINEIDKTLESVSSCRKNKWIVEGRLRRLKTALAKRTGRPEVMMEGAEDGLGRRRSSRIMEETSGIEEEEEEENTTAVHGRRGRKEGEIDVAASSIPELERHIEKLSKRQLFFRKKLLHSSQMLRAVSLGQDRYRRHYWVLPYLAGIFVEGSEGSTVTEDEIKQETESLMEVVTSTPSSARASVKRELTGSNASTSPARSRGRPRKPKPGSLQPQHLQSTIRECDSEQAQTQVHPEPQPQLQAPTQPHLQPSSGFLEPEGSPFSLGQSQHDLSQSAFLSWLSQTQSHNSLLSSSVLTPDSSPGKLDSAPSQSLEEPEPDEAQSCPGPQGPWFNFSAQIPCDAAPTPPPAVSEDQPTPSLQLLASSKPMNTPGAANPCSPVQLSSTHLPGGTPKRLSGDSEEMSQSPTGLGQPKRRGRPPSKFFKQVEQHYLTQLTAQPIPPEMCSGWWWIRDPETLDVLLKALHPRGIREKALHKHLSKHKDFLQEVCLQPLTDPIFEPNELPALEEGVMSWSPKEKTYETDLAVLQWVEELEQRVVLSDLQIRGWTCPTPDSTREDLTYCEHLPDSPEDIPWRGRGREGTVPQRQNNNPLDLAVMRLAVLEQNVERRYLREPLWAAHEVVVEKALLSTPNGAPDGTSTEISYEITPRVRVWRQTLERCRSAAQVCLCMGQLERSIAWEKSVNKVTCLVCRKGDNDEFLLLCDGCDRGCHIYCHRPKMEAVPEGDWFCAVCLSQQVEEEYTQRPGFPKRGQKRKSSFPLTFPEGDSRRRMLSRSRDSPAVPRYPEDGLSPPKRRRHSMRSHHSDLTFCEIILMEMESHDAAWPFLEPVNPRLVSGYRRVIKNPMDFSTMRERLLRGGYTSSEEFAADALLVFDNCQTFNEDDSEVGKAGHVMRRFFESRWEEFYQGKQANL
UniProt O88379: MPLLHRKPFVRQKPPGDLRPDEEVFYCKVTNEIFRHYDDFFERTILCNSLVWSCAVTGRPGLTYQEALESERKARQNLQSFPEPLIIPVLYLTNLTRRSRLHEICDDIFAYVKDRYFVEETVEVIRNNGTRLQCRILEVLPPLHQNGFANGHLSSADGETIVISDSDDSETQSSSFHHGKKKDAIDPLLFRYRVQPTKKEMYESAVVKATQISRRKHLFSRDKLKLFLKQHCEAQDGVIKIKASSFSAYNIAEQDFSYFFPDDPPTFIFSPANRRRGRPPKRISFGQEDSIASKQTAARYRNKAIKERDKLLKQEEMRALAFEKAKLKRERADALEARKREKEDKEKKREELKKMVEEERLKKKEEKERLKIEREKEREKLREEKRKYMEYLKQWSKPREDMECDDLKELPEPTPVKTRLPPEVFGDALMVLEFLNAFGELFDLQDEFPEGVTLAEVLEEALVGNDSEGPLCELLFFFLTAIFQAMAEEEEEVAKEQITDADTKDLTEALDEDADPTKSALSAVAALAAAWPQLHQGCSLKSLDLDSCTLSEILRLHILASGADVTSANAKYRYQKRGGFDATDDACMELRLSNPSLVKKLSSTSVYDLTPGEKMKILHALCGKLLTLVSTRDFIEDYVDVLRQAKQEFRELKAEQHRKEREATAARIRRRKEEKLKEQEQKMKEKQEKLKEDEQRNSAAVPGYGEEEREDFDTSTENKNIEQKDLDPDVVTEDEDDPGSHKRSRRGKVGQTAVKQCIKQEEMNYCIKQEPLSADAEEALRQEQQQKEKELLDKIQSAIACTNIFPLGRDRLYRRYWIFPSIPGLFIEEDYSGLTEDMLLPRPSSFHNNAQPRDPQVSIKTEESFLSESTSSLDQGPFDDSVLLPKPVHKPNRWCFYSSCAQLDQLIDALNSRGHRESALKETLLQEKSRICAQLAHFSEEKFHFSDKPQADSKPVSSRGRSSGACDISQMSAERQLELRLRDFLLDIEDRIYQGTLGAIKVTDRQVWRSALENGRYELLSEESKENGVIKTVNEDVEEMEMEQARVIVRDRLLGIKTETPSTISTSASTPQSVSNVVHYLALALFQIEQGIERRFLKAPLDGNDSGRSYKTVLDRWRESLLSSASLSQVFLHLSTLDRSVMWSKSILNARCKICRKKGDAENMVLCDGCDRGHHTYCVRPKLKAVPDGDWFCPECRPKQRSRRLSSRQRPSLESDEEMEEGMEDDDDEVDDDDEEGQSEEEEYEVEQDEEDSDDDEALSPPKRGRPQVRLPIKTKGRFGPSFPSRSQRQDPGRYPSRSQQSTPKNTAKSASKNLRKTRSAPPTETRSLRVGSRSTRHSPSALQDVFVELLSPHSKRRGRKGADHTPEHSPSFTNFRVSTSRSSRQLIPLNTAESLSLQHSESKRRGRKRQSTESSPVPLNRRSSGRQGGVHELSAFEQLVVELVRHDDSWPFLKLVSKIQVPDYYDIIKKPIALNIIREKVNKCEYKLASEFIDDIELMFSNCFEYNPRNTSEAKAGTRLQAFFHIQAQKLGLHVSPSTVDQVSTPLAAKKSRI
UniProt E9Q2Z1: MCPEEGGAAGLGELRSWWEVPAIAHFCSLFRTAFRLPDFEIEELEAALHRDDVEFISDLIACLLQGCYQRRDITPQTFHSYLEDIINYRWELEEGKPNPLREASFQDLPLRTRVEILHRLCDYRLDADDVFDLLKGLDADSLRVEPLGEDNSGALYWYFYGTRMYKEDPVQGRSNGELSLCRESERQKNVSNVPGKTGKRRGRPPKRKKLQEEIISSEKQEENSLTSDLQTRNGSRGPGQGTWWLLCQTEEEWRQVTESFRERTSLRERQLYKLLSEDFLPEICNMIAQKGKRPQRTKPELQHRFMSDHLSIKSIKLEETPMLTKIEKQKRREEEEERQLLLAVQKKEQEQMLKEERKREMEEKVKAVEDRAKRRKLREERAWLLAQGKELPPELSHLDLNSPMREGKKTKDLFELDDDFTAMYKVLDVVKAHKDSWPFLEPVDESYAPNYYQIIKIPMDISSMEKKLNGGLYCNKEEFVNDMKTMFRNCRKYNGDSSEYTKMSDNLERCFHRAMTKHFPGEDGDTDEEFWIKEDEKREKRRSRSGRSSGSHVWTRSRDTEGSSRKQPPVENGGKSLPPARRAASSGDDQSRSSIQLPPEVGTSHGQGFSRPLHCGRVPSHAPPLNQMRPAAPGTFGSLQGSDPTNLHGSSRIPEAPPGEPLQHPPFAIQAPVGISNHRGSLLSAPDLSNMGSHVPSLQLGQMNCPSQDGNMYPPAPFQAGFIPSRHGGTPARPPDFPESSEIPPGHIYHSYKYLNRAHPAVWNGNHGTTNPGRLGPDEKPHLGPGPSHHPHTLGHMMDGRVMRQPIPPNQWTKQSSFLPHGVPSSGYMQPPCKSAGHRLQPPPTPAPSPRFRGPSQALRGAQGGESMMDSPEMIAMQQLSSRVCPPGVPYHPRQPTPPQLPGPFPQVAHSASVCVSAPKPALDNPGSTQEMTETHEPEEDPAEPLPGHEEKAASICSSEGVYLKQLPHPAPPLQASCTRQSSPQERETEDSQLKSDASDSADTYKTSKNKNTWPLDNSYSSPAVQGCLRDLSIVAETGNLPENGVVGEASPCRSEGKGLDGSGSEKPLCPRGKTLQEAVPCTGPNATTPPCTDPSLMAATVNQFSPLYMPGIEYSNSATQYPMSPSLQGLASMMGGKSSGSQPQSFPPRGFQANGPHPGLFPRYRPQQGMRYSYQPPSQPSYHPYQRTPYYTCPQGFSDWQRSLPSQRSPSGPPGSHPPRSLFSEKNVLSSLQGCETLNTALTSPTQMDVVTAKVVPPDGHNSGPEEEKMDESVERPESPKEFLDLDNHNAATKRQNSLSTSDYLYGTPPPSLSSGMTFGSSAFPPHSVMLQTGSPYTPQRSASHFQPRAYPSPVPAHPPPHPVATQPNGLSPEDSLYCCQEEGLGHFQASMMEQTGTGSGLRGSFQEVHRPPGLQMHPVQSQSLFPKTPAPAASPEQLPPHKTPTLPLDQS

target: SNF2H (SMARCA5) (mouse (endogenous in mESCs)) (UniProt Q91ZW3); test: affinity purification with mass spectrometry; co-IP under native conditions with anti-SNF2H antibody on protein G Dynabeads from WT mESC lysate (B150AG buffer: 10 mM Tris-HCl pH 7.5, 2 mM MgCl2, 150 mM NaCl, 0.5% Triton X-100, 50 mM L-arginine, 50 mM L-glutamine), 4 °C overnight; Snf2hΔ cells as mock IP; label-free quantification, three replicates

Molecule | binding
TIP5 (BAZ2A) (from UniProt Q91YE5 1-1889) | binds
RSF1 (protein, UniProt E9PWW9 1-1441) MAAAAAAAAAAAAAAMAPPGCPGSCPNFAVVCSFLERYGPLLDLPELPFPELERVLQAPPPDIGNGEVPKELVELHLKLMRKIGKSVTADRWEKYLIKICQEFNSTWAWEMEKKGYLEMSVECKLALLKYLCECQFDDNLKFKNIINEEDADTMRLQPIGRDKDGLMYWYQLDQDHNVRMYIEEQDDQDGSSWKCIVRNRNELAETLALLKAQIDPVLLKNSSQQEDSSRESPTLEDEETKKDEETPKQEASKENEKTGADERSVDSGKCSAASALEEPAVKTEKADEKELAKLPVIVKLEKPLPETEEKKIIREESDSFKENVKPIKVEAKECRADPKDLKGSLERLGSQEPERADFGSNIKSQDIIEKSTEETEKLKNDQQAKIPLKKREIKLSDDFDSPVKGPLCKSATPTKEVLKDDIKQEEETCKRVSTISALSHEGKQLVNGEINDDKVIPNFKTEQMEIQLCDTKEDSASIPAKDGNACMEGNGTECLNSVITSTKTSELEKEAPLGKGIDSSVPDIESLSQKARLEEPGLLNMDMPLEPSEKATDLSLKPTLSATEPCSTKVEEKAPRSKSENHTPGIECLERVEKAKKTSIDKDIQKLSPIPEEVVRGALESEKSGPCEVAETPLPLSMAGAKEKQTSEKKDVDCSRGSSESQSLENASPEILKEDSESSREEVAKLDNAQTSGMEDTSETKGSVQKNKFKYKLVSERNSTASENTEITSERKKEGIKLTIRISSRKKKPDCPPQTVDSESKEEKAGKEEEKASVGRTLRRSPRISRPTAKVAEIRVQKADKRRADGEDGVEGEPASLQTADKKDHLKKAEKDTNSKASKVKPKGKVRWTGSRTRGRWKYSSNDESEGSESDKSSAALEEEEGKEGEEAVLPDDDEPCKKCGLPNHPELILLCDSCDSGYHTACLRPPLMIIPDGEWFCPPCQHKLLCEKLEEQLQDLDVALKKKERAERRKERLVYVGISIENIIPPQEPEFSEEQEEKKKDAKKSKANALERRSTRTRKCISYRFDEFDEAIDEAIEDDIKEADGGGVGRGKDISTITGHRGKDISTILDEERKENKRPQRAAAARRKKRRRLNDLDSDSNLDEEESEDEFKISDGSQDEFVVSDENPDESEEEPPSNEDSDTDFCSRRLRRHPSRPMRQSRRLRRKTPKKKYSDDDEEEEESEENSRDSESDFSDDFSDDFVETRRRRSRRNQKRQINYKEDSESDGSQKSLRRGKEIRRVHKRRLSSSESEESFMSKNSEDDELTKESKRSVRKRGRSTDDYSEADEDDEEEGKPSRKRLHRIETDEESCDNAHGDADQPARDSQPSALPSEQESSKKPYRIESDEEEDFENKVGSPLDYSLVDLPSTNGQSPGKAIENLMGKATEKSQTPKDNGTASASLAPNGTSGGQEVGAPEEDEDELLRVTDLVDYVCNSEQL | binds

Second part, the molecule after the results:

binding | Molecule
binds | ACF1 (BAZ1A) (from UniProt O88379 1-1555)
binds | CECR2 (from UniProt E9Q2Z1 1-1453)
binds | WSTF (BAZ1B) (protein, UniProt Q9Z277 1-1479) MAPLLGRKPFPLVKPLPGEEPLFTIPHTQEAFRTREEYEARLERYSERIWTCKSTGSSQLTHKEAWEEEQEVAELLKEEFPNWYEKLVLEMVHHNTASLEKLVDSAWLEIMTKYAVGEECDFEVGKEKMLKVKIVKIHPLEKVDEEAVEKKSDGACDSPSSDKENSSQMAQDLQKKETVVKEDEGRRESINDRARRSPRKLPTSLKKGERKWAPPKFLPHKYDVKLQNEDKIISNVPADSLIRTERPPNKEILRYFIRHNALRAGTGENAPWVVEDELVKKYSLPSKFSDFLLDPYKYMTLNPSTKRRNTGSPDRKPSKKPKRDSSSLSSPLNPKLWCHVHLEKSLNGPPLKVKNSKNSKSPEEHLEGVMKIMSPNNNKLHSFHIPKKGPAAKKPGKHSDKPLKAKGRGKGILNGQKSTGNSKSPSKCVKTPKTKMKQMTLLDMAKGTQKMTRTPRSSGGVPRSSGKPHKHLPPAALHLIAYYKENKDKEDKKSALSCVISKTARLLSNEDRARLPEELRALVQKRYELLEHKKRWASMSEEQRKEYLKKKRQELKERLREKAKERREREMLERLEKQKRFEDQELGGRNLPAFRLVDTPEGLPNTLFGDVALVVEFLSCYSGLLLPDAQYPITAVSLMEALSADKGGFLYLNRVLVILLQTLLQDEIAEDYGELGMKLSEIPLTLHSVSELVRLCLRRCDVQEDSEGSETDDNKDSTPFEDNEVQDEFLEKLETSEFFELTSEEKLRILTALCHRILMTYSVQDHMETRQQVSAELWKERLAVLKEENDKKRAEKQKRKEMEARNKENGKEENVLGKVDRKKEIVKIEQQVEVEADDMISAVKSRRLLSMQAKRKREIQERETKVRLEREAEEERMRKHKAAAEKAFQEGIAKAKLVLRRTPIGTDRNHNRYWLFSNEVPGLFIEKGWVHNSIDYRFKHHRKDHSNLPDDDYCPRSKKANLGKNASVNAHHGPALEAVETTVPKQGQNLWFLCDSQKELDELLSCLHPQGIRESQLKERLEKRYQEITHSIYLARKPNLGLKSCDGNQELLNFLRSDLIEVATRLQKGGLGYMEGTSEFEARVISLEKLKDFGECVIALQASVIKKFLQGFMAPKQKKRKLQSEDSTKSEEVDEEKKMVEEAKVASALEKWKTAIREAQTFSRMHVLLGMLDACIKWDMSAENARCKVCRKKGEDDKLILCDECNKAFHLFCLRPALYEVPDGEWQCPACQPPTARRNSRGRNYTEESTSEGSEGDESGEEEEEEEEEEEEEEDYEVAGLRLRPRKTIRGKQSVIPAARPGRPPGKKSHPARRSRPKDDPEVDDLVLQTKRISRRQSLELQKCEDILHKLVKYRFSWPFREPVTRDEAEDYYDVIEHPMDFQTIQNKCSCGNYRSVQEFLTDMKQVFANAELYNCRGSHVLSCMEKTEQCLLALLQKHLPGHPYVRRKRRKFPDRLADDEGDSDSESVGQSRGRRQKK
